For eleven molecules, T/C and survivor count results are on record in PubChem BioAssay AID270 (DTP/NCI, 2004).

The test system of this assay is BDF1 mice, s.c. Lewis lung carcinoma, T/C %. Put plainly: NCI In Vivo Anticancer Drug Screen. Data for tumor model Lewis Lung Carcinoma (subcutaneous) in B6D2F1 (BDF1) mice. On the procedure:
The antitumor activity of compounds was measured in mice bearing transplantable tumors. Survival or tumor size were measured and the results are expressed as the measurement made in the treated group (T) divided by the measurement made in the vehicle treated control group (C). The tumor model used in this assay is Lewis Lung Carcinoma (subcutaneous) in B6D2F1 (BDF1) mice

Setting [1] is: T/C endpoint: mean tumor weight, dose: 0.5 mg/kg/injection, schedule: Q01DX011 (ip), vehicle: saline, evaluated on day 12, higher T/C = larger tumour.
Setting [2] is: T/C endpoint: mean tumor weight, dose: 1.0 mg/kg/injection, schedule: Q01DX011 (ip), vehicle: saline, evaluated on day 12, higher T/C = larger tumour.
[3] abbreviates: T/C endpoint: mean tumor weight, dose: 2.0 mg/kg/injection, schedule: Q01DX011 (ip), vehicle: saline, evaluated on day 12, higher T/C = larger tumour.

The list is a part of this screen's results and no random one: it gathers some chemical classes. Other doses and runs of a compound may be missing. T/C is the treated group as % of the vehicle group. Schedule codes are those of the source, read here as Q, the interval in days (D) or hours (H), X, the number of doses. Some T/C values are followed by the survivors on the day toxicity was checked; where neither a count nor a note follows, no animal had died by that day. Some entries give survivors of the animals treated and no T/C: the source holds a T/C of zero for them, seemingly a mark for toxic or unscored doses. Some doses without a T/C left all or most animals alive at the check, yet need not have been tolerated: survival well below the control is almost never listed, so the zero probably covers shortened survival too. Counts of survivors are from the toxicity check (mostly the fifth day) where no day follows; animals may have died later. Counts of survivors are from the toxicity check, whose day is not always given; animals may have died later. Where survival is the endpoint, the PubChem record calls one and a half times the control and up active, and a quarter to a half above the control has no call in these data; cut-offs in other NCI protocols can differ. Some T/C values carry the count of animals alive at the toxicity check (mostly the fifth day); where neither a count nor a note follows, no animal had died by that day.

For `COc1cc2c(c3oc4cccc(O)c4c(=O)c13)[C@@H]1C=CO[C@@H]1O2`, the T/C (T/C endpoint: median survival time, dose: 3.75 mg/kg/injection, schedule: Q01DX009 (ip), vehicle: Klucel (hydroxypropylcellulose) (HPC), higher T/C = longer survival) was 87 % of control; the T/C (T/C endpoint: median survival time, dose: 4.0 mg/kg/injection, schedule: Q01DX009 (ip), vehicle: saline with Tween-80, higher T/C = longer survival) is 94 % of control; the T/C (T/C endpoint: median survival time, dose: 7.5 mg/kg/injection, schedule: Q01DX009 (ip), vehicle: Klucel (hydroxypropylcellulose) (HPC), higher T/C = longer survival) is 108 % of control; the T/C (T/C endpoint: median survival time, dose: 8.0 mg/kg/injection, schedule: Q01DX009 (ip), vehicle: saline with Tween-80, higher T/C = longer survival) was 104 % of control; the T/C (T/C endpoint: median survival time, dose: 15.0 mg/kg/injection, schedule: Q01DX009 (ip), vehicle: Klucel (hydroxypropylcellulose) (HPC), higher T/C = longer survival) was 100 % of control; the T/C (T/C endpoint: median survival time, dose: 16.0 mg/kg/injection, schedule: Q01DX009 (ip), vehicle: saline with Tween-80, higher T/C = longer survival) is 103 % of control. In addition, the T/C by setting is: (T/C endpoint: median survival time, dose: 32.0 mg/kg/injection, schedule: Q01DX009 (ip), vehicle: saline with Tween-80, higher T/C = longer survival) 103 % of control; (T/C endpoint: median survival time, dose: 64.0 mg/kg/injection, schedule: Q01DX009 (ip), vehicle: saline with Tween-80, higher T/C = longer survival) 128 % of control; (T/C endpoint: median survival time, dose: 128.0 mg/kg/injection, schedule: Q01DX009 (ip), vehicle: saline with Tween-80, higher T/C = longer survival) 87 % of control. Moreover, the survivor count is, setting by setting: (T/C endpoint: median survival time, dose: 30.0 mg/kg/injection, schedule: Q01DX009 (ip), vehicle: Klucel (hydroxypropylcellulose) (HPC), higher T/C = longer survival) 10 of 10; (T/C endpoint: median survival time, dose: 60.0 mg/kg/injection, schedule: Q01DX009 (ip), vehicle: Klucel (hydroxypropylcellulose) (HPC), higher T/C = longer survival) 10 of 10.

Consider `BrCc1cccc(CBr)c1`, for which the T/C is 58 % of control [5 of 6 alive] (T/C endpoint: mean tumor weight, dose: 2.3 mg/kg/injection, schedule: Q01DX011 (ip), vehicle: acid diluted with saline, evaluated on day 12, higher T/C = larger tumour); 105 % of control (T/C endpoint: mean tumor weight, dose: 4.5 mg/kg/injection, schedule: Q01DX011 (ip), vehicle: acid diluted with saline, evaluated on day 12, higher T/C = larger tumour); 58 % of control (T/C endpoint: mean tumor weight, dose: 9.0 mg/kg/injection, schedule: Q01DX011 (ip), vehicle: acid diluted with saline, evaluated on day 12, higher T/C = larger tumour); 153 % of control (T/C endpoint: mean tumor weight, dose: 9.0 mg/kg/injection, schedule: Q01DX011 (ip), vehicle: other, evaluated on day 12, higher T/C = larger tumour); 62 % of control (T/C endpoint: mean tumor weight, dose: 18.0 mg/kg/injection, schedule: Q01DX011 (ip), vehicle: acid diluted with saline, evaluated on day 12, higher T/C = larger tumour); 108 % of control (T/C endpoint: mean tumor weight, dose: 18.0 mg/kg/injection, schedule: Q01DX011 (ip), vehicle: other, evaluated on day 12, higher T/C = larger tumour). The T/C is, setting by setting: (T/C endpoint: mean tumor weight, dose: 36.0 mg/kg/injection, schedule: Q01DX011 (ip), vehicle: other, evaluated on day 12, higher T/C = larger tumour) 126 % of control; (T/C endpoint: mean tumor weight, dose: 54.0 mg/kg/injection, schedule: Q01DX011 (ip), vehicle: other, evaluated on day 12, higher T/C = larger tumour) 93 % of control. Moreover, the survivor count is listed as 1 of 6 (T/C endpoint: mean tumor weight, dose: 54.0 mg/kg/injection, schedule: Q01DX011 (ip), vehicle: other, higher T/C = larger tumour); 0 of 6 (T/C endpoint: mean tumor weight, dose: 108.0 mg/kg/injection, schedule: Q01DX011 (ip), vehicle: other, higher T/C = larger tumour); 0 of 6 (T/C endpoint: mean tumor weight, dose: 162.0 mg/kg/injection, schedule: Q01DX011 (ip), vehicle: other, higher T/C = larger tumour).

For the molecule `CN(C)P(=O)(Nc1ccccn1)N(C)C`, the T/C (T/C endpoint: median survival time, dose: 5.0 mg/kg/injection, schedule: Q01DX009 (ip), vehicle: saline, higher T/C = longer survival) was 102 % of control and the T/C (T/C endpoint: median survival time, dose: 10.0 mg/kg/injection, schedule: Q01DX009 (ip), vehicle: saline, higher T/C = longer survival) was 91 % of control. Also, the survivor count (T/C endpoint: median survival time, dose: 20.0 mg/kg/injection, schedule: Q01DX009 (ip), vehicle: saline, higher T/C = longer survival) is 10 of 10.

Take `CC[C@H](C)[C@@H]1NC(=O)/C(=C(\C)O)C1=O`: the T/C was 78 % of control (T/C endpoint: mean tumor weight, dose: 31.3 mg/kg/injection, schedule: Q01DX011 (ip), vehicle: saline, evaluated on day 12, higher T/C = larger tumour) and 87 % of control [5 of 7 alive] (T/C endpoint: mean tumor weight, dose: 62.5 mg/kg/injection, schedule: Q01DX011 (ip), vehicle: saline, evaluated on day 12, higher T/C = larger tumour). The survivor count is reported as 0 of 7 (T/C endpoint: mean tumor weight, dose: 125.0 mg/kg/injection, schedule: Q01DX011 (ip), vehicle: saline, higher T/C = larger tumour) and 0 of 7 (T/C endpoint: mean tumor weight, dose: 250.0 mg/kg/injection, schedule: Q01DX011 (ip), vehicle: saline, higher T/C = larger tumour).

For the molecule `Nc1cc([As]=O)ccc1O` (configuration not stated), the T/C (T/C endpoint: median survival time, dose: 12.5 mg/kg/injection, schedule: Q01DX009 (ip), vehicle: saline with Tween-80, higher T/C = longer survival) is 100 % of control; the T/C (T/C endpoint: median survival time, dose: 25.0 mg/kg/injection, schedule: Q01DX009 (ip), vehicle: saline with Tween-80, higher T/C = longer survival) is 93 % of control; the T/C (T/C endpoint: median survival time, dose: 50.0 mg/kg/injection, schedule: Q01DX009 (ip), vehicle: saline with Tween-80, higher T/C = longer survival) was 90 % of control [9 of 10 alive]. The survivor count (T/C endpoint: median survival time, dose: 75.0 mg/kg/injection, schedule: Q01DX009 (ip), vehicle: saline with Tween-80, higher T/C = longer survival) is listed as 3 of 10.

`O[C@H](CNCCCl)[C@@H](O)CNCCCl`: the T/C runs as follows: (T/C endpoint: mean tumor weight, dose: 4.5 mg/kg/injection, schedule: Q01DX011 (ip), vehicle: saline, evaluated on day 12, higher T/C = larger tumour) 72 % of control; (T/C endpoint: mean tumor weight, dose: 9.0 mg/kg/injection, schedule: Q01DX011 (ip), vehicle: saline, evaluated on day 12, higher T/C = larger tumour) 77 % of control. The survivor count (T/C endpoint: mean tumor weight, dose: 18.0 mg/kg/injection, schedule: Q01DX011 (ip), vehicle: saline, higher T/C = larger tumour) is 1 of 6 and the survivor count (T/C endpoint: mean tumor weight, dose: 36.0 mg/kg/injection, schedule: Q01DX011 (ip), vehicle: saline, higher T/C = larger tumour) is 0 of 6.

Consider `NC1CCCCC1.O=P(O)(N(CCCl)CCCl)N1CC1`, for which the T/C (T/C endpoint: median survival time, dose: 6.25 mg/kg/injection, schedule: Q08DX002 (ip), vehicle: saline, higher T/C = longer survival) was 114 % of control; the T/C (T/C endpoint: median survival time, dose: 12.5 mg/kg/injection, schedule: Q04DX003 (ip), vehicle: saline, higher T/C = longer survival) was 114 % of control; the T/C (T/C endpoint: median survival time, dose: 12.5 mg/kg/injection, schedule: Q08DX002 (ip), vehicle: saline, higher T/C = longer survival) was 115 % of control; the T/C (T/C endpoint: median survival time, dose: 25.0 mg/kg/injection, schedule: Q04DX003 (ip), vehicle: saline, higher T/C = longer survival) was 112 % of control; the T/C (T/C endpoint: median survival time, dose: 25.0 mg/kg/injection, schedule: Q08DX002 (ip), vehicle: saline, higher T/C = longer survival) is 100 % of control; the T/C (T/C endpoint: median survival time, dose: 50.0 mg/kg/injection, schedule: Q04DX003 (ip), vehicle: saline, higher T/C = longer survival) is 112 % of control. For the same molecule, the T/C is, setting by setting: (T/C endpoint: median survival time, dose: 50.0 mg/kg/injection, schedule: Q08DX002 (ip), vehicle: saline, higher T/C = longer survival) 107 % of control; (T/C endpoint: median survival time, dose: 100.0 mg/kg/injection, schedule: Q04DX003 (ip), vehicle: saline, higher T/C = longer survival) 96 % of control.

In the case of `O=P1(N(CCCl)CCCl)OCCCN1CCCl` (configuration not stated), where the note is “T/C endpoint: mean tumor weight, dose: 12.5 mg/kg/injection, schedule: Q01DX011 (ip), vehicle: saline, evaluated on day 12, higher T/C = larger tumour”, the T/C is 36 % of control [5 of 6 alive].

Turning to `CC1=C2C(=CC(C)(C)C2O)C(O)C(C)(O)C12CC2` (configuration not stated), the T/C was 80 % of control (T/C endpoint: mean tumor weight, dose: 0.25 mg/kg/injection, schedule: Q01DX011 (ip), vehicle: saline, evaluated on day 12, higher T/C = larger tumour); 49 % of control under setting [1]; 90 % of control under setting [2]; 52 % of control under setting [3].

For `O[C@H](CNCCBr)[C@@H](O)CNCCBr`, the T/C runs as follows: (T/C endpoint: mean tumor weight, dose: 0.3 mg/kg/injection, schedule: Q01DX011 (ip), vehicle: saline, evaluated on day 12, higher T/C = larger tumour) 122 % of control; under setting [1], 49 % of control; under setting [2], 159 % of control; (T/C endpoint: mean tumor weight, dose: 2.0 mg/kg/injection, schedule: Q01DX011 (ip), vehicle: other, evaluated on day 12, higher T/C = larger tumour) 139 % of control; under setting [3], 66 % of control; (T/C endpoint: mean tumor weight, dose: 4.0 mg/kg/injection, schedule: Q01DX011 (ip), vehicle: other, evaluated on day 12, higher T/C = larger tumour) 67 % of control [5 of 6 alive]. For the same molecule, the survivor count is, setting by setting: (T/C endpoint: mean tumor weight, dose: 8.0 mg/kg/injection, schedule: Q01DX011 (ip), vehicle: other, higher T/C = larger tumour) 0 of 6; (T/C endpoint: mean tumor weight, dose: 16.0 mg/kg/injection, schedule: Q01DX011 (ip), vehicle: other, higher T/C = larger tumour) 0 of 6.

As for `Cc1[nH]c(=O)[nH]c(=O)c1N(CCCl)CCCl`, the T/C by setting is: (T/C endpoint: median survival time, dose: 0.5 mg/kg/injection, schedule: Q01DX009 (ip), vehicle: Klucel (hydroxypropylcellulose) (HPC), higher T/C = longer survival) 123 % of control; (T/C endpoint: median survival time, dose: 1.0 mg/kg/injection, schedule: Q01DX009 (ip), vehicle: Klucel (hydroxypropylcellulose) (HPC), higher T/C = longer survival) 126 % of control. For the same molecule, the survivor count reads like this: (T/C endpoint: median survival time, dose: 2.0 mg/kg/injection, schedule: Q01DX009 (ip), vehicle: Klucel (hydroxypropylcellulose) (HPC), higher T/C = longer survival) 9 of 9; (T/C endpoint: median survival time, dose: 4.0 mg/kg/injection, schedule: Q01DX009 (ip), vehicle: Klucel (hydroxypropylcellulose) (HPC), higher T/C = longer survival) 9 of 10.
